According to PMC11862924, “Phenylpyrazoles as Inhibitors of the m^6A RNA-Binding Protein YTHDF2” (JACS Au, 2025):

Test system: YTHDF2 RNA binding in K562 cells
Assay: eCLIP of YTHDF2-bound RNAs
Assay type: cell-based, human

O=C(O)c1ccc(-n2cc(C(=O)c3c(O)ccc4ccccc34)cn2)cc1 [CK-75]
change in the global RBP-binding pattern in eCLIP (in words): did not lead to significant changes | windows differentially enriched in treated cells (Z-score >3 or <−3) (20 μM, 4 h): 23 windows | share of DMSO eCLIP windows significantly enriched in the treated eCLIP (20 μM, 4 h, 5606/6618): 84.71% | DMSO eCLIP windows (of 6618) also significantly enriched in the treated eCLIP (20 μM, 4 h, log2 fold change >1, p < 0.05): 5606 windows
